The name of at least one read-out is uncertain.
How the values were obtained:
Test in all cases: Spectrophotometric assay of hydrolytic activity (kinetic parameters)
Format in all cases: biochemical
[1] = biological target: hydrolase Seq ID No: 1 (metagenomic, wild-type hydrolase) (uncultured bacterium, UniProt A0ACD6BAS6); details: potassium phosphate buffer, pH 7.5, 22 °C; 310 nm (BzdC) or 290 nm (dC)
Protocol: (§1) For the spectrophotometric assay, the reaction was started by adding an appropriate amount of protein to potassium phosphate buffer, pH 7.5 supplemented with 0.3, 0.15, 0.1, 0.075, 0.05, 0.0375, 0.025, 0.0125 mM N^4-benzoyl-2'-deoxycytidine, or 1, 0.8, 0.5, 0.4, 0.25, 0.2, 0.1, 0.05 mM 2'-deoxycytidine. Then, decreases in absorbance at either 310 for N^4-benzoyl-2'-deoxycytidine or 290 nm for 2'-deoxycytidine were recorded at 22 °C. Kinetic parameters (Table x) were calculated using Imfit-py 1.0.2 software fitting the experimental data to a simple Michaelis-Menten kinetics scheme. Table 5. Kinetic parameters of hydrolases. Substrate: BzdC - N4-benzoyl-2'-deoxycytidine; dC-2'-deoxycytidine.

By UniProt entry, the sequences of proteins in these tests, tags left out. Where a name states a change or a piece, a line headed by the entry shows the natural chain unless it says otherwise.
UniProt A0ACD6BAS6, entry or part of it: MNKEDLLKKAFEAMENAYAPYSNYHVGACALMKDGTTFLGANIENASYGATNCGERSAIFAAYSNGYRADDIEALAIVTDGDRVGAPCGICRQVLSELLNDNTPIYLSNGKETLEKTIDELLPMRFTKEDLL

[2] = biological target: hydrolase variant Seq ID No: 11 (site-directed mutant) (uncultured bacterium, UniProt A0ACD6BAS6); details: potassium phosphate buffer, pH 7.5, 22 °C; 310 nm
Text: (§2) Mutations in the hydrolase's genes were introduced using methodology based on "Phusion™ Site-Directed Mutagenesis Kit" (Thermo Fisher Scientific). For specific mutagenesis, primer pairs meant to amplify the whole plasmid with the target protein gene, where one primer has miss-matched base pairs in the middle, were created (Fw/Rv): […]/[…] (SEQ ID NO:10); [formula] [formula] […]/[…] (SEQ ID NO:13); [formula] [formula] […]/[…] and […]/[…] (SEQ ID NO: 16, SEQ ID NO: 17, SEQ ID NO: 18); [formula] […]/[…] (SEQ ID NO: 21); [formula] […]/[…] (SEQ ID NO: 23); […]/[…] (SEQ ID NO: 24).
as §1

[3] = biological target: hydrolase variant Seq ID No:13 (site-directed mutant) (uncultured bacterium, UniProt A0ACD6BAS6, form not given/G85I); details: potassium phosphate buffer, pH 7.5, 22 °C; 310 nm (BzdC) or 290 nm (dC)
Text: as §2, §1

[4] = biological target: hydrolase variant Seq ID No: 12 (site-directed mutant) (uncultured bacterium, UniProt A0ACD6BAS6); details: potassium phosphate buffer, pH 7.5, 22 °C; 310 nm
Text: as §2, §1

[5] = biological target: hydrolase variant Seq ID No: 15 (site-directed mutant) (uncultured bacterium, UniProt A0ACD6BAS6); details: potassium phosphate buffer, pH 7.5, 22 °C; 310 nm (BzdC) or 290 nm (dC)
Text: as §2, §1

[6] = biological target: hydrolase variant Seq ID No: 10 (site-directed mutant) (uncultured bacterium, UniProt A0ACD6BAS6, DEL127-130, form not given); details: potassium phosphate buffer, pH 7.5, 22 °C; 310 nm
Text: as §2, §1

[7] = tested on: hydrolase Seq ID No: 3 (metagenomic hydrolase); details: potassium phosphate buffer, pH 7.5, 22 °C; 310 nm (BzdC) or 290 nm (dC)
Protocol: as §1

SMILES	kcat/Km [1]	kcat/Km [2]	kcat/Km [3]	kcat/Km [4]	kcat/Km [5]	kcat/Km [6]	kcat/Km [7]
O=C(Nc1ccn([C@H]2C[C@H](O)[C@@H](CO)O2)c(=O)n1)c1ccccc1 [BzdC, N4-benzoyl-2'-deoxycytidine]	(4.36 ± 3.6) ×10 ^3 M^-1/S^-1	(1.5 ± 0.09) × 10^2 M^-1/S^-1	(1.52 ± 0.08) × 10 ^3 M^-1/S^-1	(4.92 ± 0.24) × 10^2 M^-1/S^-1	(9.20 ± 0.42) × 10 ^1 M^-1/S^-1	(3.7 ± 0.09) × 10^2 M^-1/S^-1	–
Nc1ccn([C@H]2C[C@H](O)[C@@H](CO)O2)c(=O)n1 [dC, 2'-deoxycytidine]	(12.5 ± 1.2) ×10 ^3 M^-1/S^-1	–	(2.32 ± 0.32) × 10 ^3 M^-1/S^-1	–	(15.5 ± 1.1) × 10 ^1 M^-1/S^-1	–	(11.5 +/- 0.78) × 10^2 M^-1/S^-1

— patent EP4299736A2, “HYDROLASES AND USES THEREOF” (Vilnius University, priority 2022, dated 2024)
